PubChem BioAssay AID248 (DTP/NCI, 2004)
The list does not hold the whole screen: it is rich in T/C values a quarter to a half above the control, in often repeated tests (any T/C) and in doses without a T/C. Further doses and runs are listed elsewhere. T/C gives the treated animals as a percentage of the vehicle group. Some doses have a count of surviving animals in place of a T/C: the source holds a T/C of zero for them, seemingly a mark for toxic or unscored doses. Some survivor counts are full or nearly so, which does not show that the dose was tolerated: the source hardly ever lists a survival T/C far under the control, and the zero likely stands for such cases as well. Survivors were counted at the toxicity check, usually on the fifth day, unless a day is given; later deaths do not show. Schedule codes are those of the source, read here as Q, the interval in days (D) or hours (H), X, the number of doses. Some schedule codes hold Z or #, which are not explained here. Some doses were run more than once; the values are given in rising order. For survival time, this PubChem deposit counts one and a half times the control or more as active, and values a quarter to a half above the control carry no call in these data; other NCI protocols may use other cut-offs. Some T/C values carry the count of animals alive at the toxicity check (mostly the fifth day); where none is given, no animal had died by that day. Signs of the kind (2×) stand for listed records that agree.

Test system: L1210 leukemia ip in BDF1 mice, survival T/C
Assay: NCI In Vivo Anticancer Drug Screen. Data for tumor model L1210 Leukemia (intraperitoneal) in B6D2F1 (BDF1) mice
Settings: T/C endpoint: mean survival time, higher T/C = longer survival
[1] = dose: 160.0 mg/kg/injection, schedule: Q01DX001 (ip), vehicle: saline

CC[C@](O)(C(=O)O)c1cc2n(c(=O)c1CO)Cc1cc3ccccc3nc1-2
survivor count (dose: 40.0 mg/kg/injection, schedule: Q04DX003 (oral), vehicle: saline): 3 of 6
T/C (dose: 40.0 mg/kg/injection, schedule: Q## X001 (ip), vehicle: saline): 132 and 136 % of control [5 of 6 alive]
T/C (dose: 40.0 mg/kg/injection, schedule: Q## X002 (ip), vehicle: saline): 143 % of control [9 of 10 alive]
survivor count (dose: 40.0 mg/kg/injection, schedule: Q## X002 (oral), vehicle: saline): 1 of 10
T/C (dose: 40.0 mg/kg/injection, schedule: Q## X003 (ip), vehicle: saline, evaluated on day 30): 189 % of control
T/C (dose: 40.0 mg/kg/injection, schedule: Q## X003 (ip), vehicle: saline, evaluated on day 40): 205 and 215 % of control (2×)
survivor count (dose: 40.0 mg/kg/injection, schedule: Q## X003 (oral), vehicle: saline): 7 of 10
survivor count (dose: 40.0 mg/kg/injection, schedule: Q## X003 (oral), vehicle: water): 5 of 10
survivor count (dose: 40.0 mg/kg/injection, schedule: Q## X008 (ip), vehicle: saline): 6 of 10
survivor count (dose: 40.0 mg/kg/injection, schedule: Q## X008 (oral), vehicle: water): 2 of 10
survivor count (dose: 40.0 mg/kg/injection, schedule: Q## X024 (ip), vehicle: saline): 1 of 10
survivor count (dose: 40.0 mg/kg/injection, schedule: Q## X024 (oral), vehicle: water): 0 of 10
survivor count (dose: 45.0 mg/kg/injection, schedule: Q03DX Z (ip), vehicle: saline): 6 of 6
T/C (dose: 50.0 mg/kg/injection, schedule: Q01DX001 (ip), vehicle: saline): 131 % of control
T/C (dose: 54.0 mg/kg/injection, schedule: Q01DX001 (ip), vehicle: saline): 142 % of control
T/C (dose: 60.0 mg/kg/injection, schedule: Q## X001 (ip), vehicle: saline): 147 % of control [4 of 6 alive]
survivor count (dose: 70.0 mg/kg/injection, schedule: Q03DX Z (ip), vehicle: saline): 4 of 6
T/C (dose: 75.0 mg/kg/injection, schedule: Q01DX001 (ip), vehicle: saline, evaluated on day 5): 130, 134, 142 % of control
T/C (dose: 75.0 mg/kg/injection, schedule: Q01DX001 (ip), vehicle: saline, evaluated on day 45): 130 [7 of 8 alive] and 142 % of control
survivor count (dose: 75.0 mg/kg/injection, schedule: Q01DX001 (ip), vehicle: saline): 6 of 10
T/C (dose: 80.0 mg/kg/injection, schedule: Q01DX001 (ip), vehicle: saline, evaluated on day 30): 141, 145 [5 of 6 alive], 155, 164 % of control
T/C (dose: 80.0 mg/kg/injection, schedule: Q01DX001 (ip), vehicle: saline, evaluated on day 40): 155 and 160 % of control
survivor count (dose: 80.0 mg/kg/injection, schedule: Q01DX001 (ip), vehicle: saline): 4 of 10
survivor count (dose: 80.0 mg/kg/injection, schedule: Q01DX001 (oral), vehicle: saline): 1 of 10
survivor count (dose: 80.0 mg/kg/injection, schedule: Q01DX001 (oral), vehicle: water): 5 of 10
survivor count (dose: 80.0 mg/kg/injection, schedule: Q04DX003 (ip), vehicle: clinical formulation): 8 of 10
T/C (dose: 80.0 mg/kg/injection, schedule: Q04DX003 (ip), vehicle: saline): 129 % of control
survivor count (dose: 80.0 mg/kg/injection, schedule: Q04DX003 (ip), vehicle: water): 8 of 10
survivor count (dose: 80.0 mg/kg/injection, schedule: Q04DX003 (oral), vehicle: saline): 2 of 6
survivor count (dose: 80.0 mg/kg/injection, schedule: Q## X002 (ip), vehicle: saline): 6 of 10
survivor count (dose: 80.0 mg/kg/injection, schedule: Q## X002 (oral), vehicle: saline): 1 of 10
survivor count (dose: 80.0 mg/kg/injection, schedule: Q## X003 (ip), vehicle: saline): 6 of 10
survivor count (dose: 80.0 mg/kg/injection, schedule: Q## X008 (ip), vehicle: saline): 1 of 10
survivor count (dose: 80.0 mg/kg/injection, schedule: Q## X008 (oral), vehicle: water): 2 of 10
T/C (dose: 100.0 mg/kg/injection, schedule: Q01DX001 (ip), vehicle: saline): 128 % of control [5 of 6 alive]
survivor count (dose: 100.0 mg/kg/injection, schedule: Q04DX002 (ip), vehicle: saline): 3 of 3
survivor count (dose: 100.0 mg/kg/injection, schedule: Q04DX003 (ip), vehicle: saline): 4 of 6
T/C (dose: 150.0 mg/kg/injection, schedule: Q01DX001 (ip), vehicle: saline, evaluated on day 5): 64, 125, 241 % of control
T/C (dose: 150.0 mg/kg/injection, schedule: Q01DX001 (ip), vehicle: saline, evaluated on day 45): 125 % of control
survivor count (dose: 150.0 mg/kg/injection, schedule: Q01DX001 (ip), vehicle: saline): 3 of 10 and 4 of 10
T/C [1]: 137 [9 of 10 alive] and 189 % of control [9 of 10 alive]
survivor count [1]: 0 of 10, 1 of 6, 3 of 6, 5 of 6
survivor count (dose: 160.0 mg/kg/injection, schedule: Q01DX001 (oral), vehicle: water): 4 of 10
survivor count (dose: 160.0 mg/kg/injection, schedule: Q04DX003 (ip), vehicle: clinical formulation): 3 of 10
survivor count (dose: 160.0 mg/kg/injection, schedule: Q04DX003 (ip), vehicle: saline): 5 of 10
survivor count (dose: 160.0 mg/kg/injection, schedule: Q04DX003 (ip), vehicle: water): 1 of 10
